# Measurements: publication PMC10745926, “Synthesis and Evaluation of Compound Targeting α7 and β2 Subunits in Nicotinic Acetylcholinergic Receptor” (Molecules, 2023)
# Sequences of proteins named here, by UniProt entry; tags and fusion partners are left off. Residues count along the entry.
# UniProt P49582, residues 23-502: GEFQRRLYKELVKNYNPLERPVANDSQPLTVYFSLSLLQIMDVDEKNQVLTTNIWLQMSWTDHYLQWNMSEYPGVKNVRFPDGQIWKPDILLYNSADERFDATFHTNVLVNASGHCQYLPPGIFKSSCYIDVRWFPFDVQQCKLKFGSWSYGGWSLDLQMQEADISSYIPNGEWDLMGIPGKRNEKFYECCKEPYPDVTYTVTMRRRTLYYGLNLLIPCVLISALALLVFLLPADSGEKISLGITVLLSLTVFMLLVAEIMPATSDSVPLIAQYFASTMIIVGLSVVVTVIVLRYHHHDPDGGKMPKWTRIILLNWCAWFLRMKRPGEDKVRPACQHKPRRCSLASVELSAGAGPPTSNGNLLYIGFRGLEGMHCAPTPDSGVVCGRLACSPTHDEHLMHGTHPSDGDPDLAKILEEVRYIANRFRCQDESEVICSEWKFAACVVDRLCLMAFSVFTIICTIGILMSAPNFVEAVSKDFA
# UniProt Q05941, residues 23-502: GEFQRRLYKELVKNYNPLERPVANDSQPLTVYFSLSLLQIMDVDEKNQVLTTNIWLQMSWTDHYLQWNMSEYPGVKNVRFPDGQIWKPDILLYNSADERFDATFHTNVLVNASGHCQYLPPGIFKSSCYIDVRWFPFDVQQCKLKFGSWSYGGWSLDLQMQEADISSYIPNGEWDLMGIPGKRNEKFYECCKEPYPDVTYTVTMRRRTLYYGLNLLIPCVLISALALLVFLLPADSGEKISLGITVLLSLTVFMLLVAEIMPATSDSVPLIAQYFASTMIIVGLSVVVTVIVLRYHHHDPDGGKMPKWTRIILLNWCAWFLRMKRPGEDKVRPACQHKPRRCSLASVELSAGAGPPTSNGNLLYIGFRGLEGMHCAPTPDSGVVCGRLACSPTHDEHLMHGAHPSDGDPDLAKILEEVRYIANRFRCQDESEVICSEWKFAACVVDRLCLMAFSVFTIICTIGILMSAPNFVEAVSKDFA
# UniProt P60615, residues 22-95: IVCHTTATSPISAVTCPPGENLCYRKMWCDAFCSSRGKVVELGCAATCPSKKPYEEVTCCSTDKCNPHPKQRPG
# No constants are given. Whether binding was seen depends on the method and setting. Some entries that bind do so weakly or less than the wild type.
# Tests used:
# [1] = biological target: α7 nAChR (mouse brain) (mouse (endogenous in C57BL/6 mouse brain slices)) (UniProt P49582); assay: radioligand binding; only the binder purified
# [2] = biological target: α7 nAChR (rat brain) (rat (endogenous in Sprague Dawley rat brain slices)) (UniProt Q05941); assay: radioligand binding; only the binder purified
substance,measurement,setting,value
[^125I]α-iodobungarotoxin (from UniProt P60615 22-95) (ligand),binding,[1],binds
same,binding,[2],binds
